Data reported in patent US20080274061A1, “Method for Treating a Restless Limb Disorder” (priority 2007, published 2008).
Counter-ions that a name gives are not always drawn. At least one read-out could not be matched to a standard name with certainty.

Assay: Maximum solubility in aqueous cyclodextrin solution at room temperature, isocratic HPLC
Type: physicochemical
Settings: by adding 0.1 g/ml α-CD
Experimental: The concentration was determined by isocratic HPLC analysis. HPLC column LiChroCART 75×4 mm, Superspher 60 RP-select B 5 μm (Merck), column temperature: 30° C., mobile phase:water/acetonitrile/methanesulfonic acid (65/35/0.05 v/v/v), flow rate: 2 ml/min, injection volume: 50 μl, detection at 220 nm, retention time approx. 1.5 min. The concentration was determined by use of an external reference solution having known concentration.

SMILES: CCCN(CCc1cccs1)[C@H]1CCc2c(O)cccc2C1 [Rotigotine HCl]
- increase of solubility: five-fold
